{"source": "PubChem BioAssay AID1053208 (Peter MacCallum Cancer Centre, 2014)", "screen": "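Find knock-downs that sensitise mouse osteosarcoma cells to doxorubicin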 (primary screen)", "cell system": "mouse osteosarcoma cells, early-passage culture from an engineered mouse model of fibroblastic bone tumour", "reagent": "siRNA pool against mouse genes, 40 nM", "timing": "about 120 h (48 h before drug, then 72 h with drug)", "treatment": "doxorubicin 100 nM for 72 h, roughly 30-40% inhibitory dose", "measured": "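Luminescent ATP signal taken as viability with or without 100 nM doxorubicin for 72 h; mean of two wells set against non-targeting siRNA and turned into robust z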", "scale": "viability z-score with doxorubicin: higher = more viable cells under doxorubicin; viability z-score without drug: higher = more viable cells with knock-down alone", "call rule": "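Called active if knock-down leaves viability unchanged without drug (z within -2 to 2) but lowers it with doxorubicin (z at or under -2)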", "note": "In all, the deposit lists about 17,000 reagents; below is an unselected part. 788 of them (4.7%) were called active. 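Calls rest on z-score classes alone; an extra cut-off of viability at most 70% of control was not applied to them.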 Unmarked entries are inactive. Not all columns of the deposit are shown. No sequences are given here."}
{"target":"Sptlc1","combined z-score class":"no change with or without drug","viability z-score with doxorubicin":-0.45,"viability z-score without drug":0.34}
{"target":"Or51f1d","combined z-score class":"low cell count with doxorubicin only (active)","viability z-score with doxorubicin":-2.25,"viability z-score without drug":-1.52}
{"target":"Fbxo17","combined z-score class":"no change with or without drug","viability z-score with doxorubicin":-1.57,"viability z-score without drug":-0.17}
{"target":"Or5b119","combined z-score class":"no change with or without drug","viability z-score with doxorubicin":0,"viability z-score without drug":-0.17}

Next part (2 carried over from the part before).
{"target":"Fbxo17","combined z-score class":"no change with or without drug","viability z-score with doxorubicin":-1.57,"viability z-score without drug":-0.17}
{"target":"Or5b119","combined z-score class":"no change with or without drug","viability z-score with doxorubicin":0,"viability z-score without drug":-0.17}
{"target":"Ddx1","combined z-score class":"no change with or without drug","viability z-score with doxorubicin":1.12,"viability z-score without drug":0.84}
{"target":"Tmc4","combined z-score class":"no change with or without drug","viability z-score with doxorubicin":1.01,"viability z-score without drug":-0.17}
{"target":"Pam","combined z-score class":"no change with or without drug","viability z-score with doxorubicin":0.45,"viability z-score without drug":0}
{"target":"Rbm6","combined z-score class":"high cell count with and without drug","viability z-score with doxorubicin":2.25,"viability z-score without drug":4.38}
{"target":"Map3k14","combined z-score class":"no change with or without drug","viability z-score with doxorubicin":-0.67,"viability z-score without drug":-1.85}
{"target":"Fam13a","combined z-score class":"no change with or without drug","viability z-score with doxorubicin":0.22,"viability z-score without drug":1.52}
{"target":"Tesmin","combined z-score class":"no change with or without drug","viability z-score with doxorubicin":-0.22,"viability z-score without drug":-0.17}
{"target":"Them6","combined z-score class":"low cell count with doxorubicin only (active)","viability z-score with doxorubicin":-2.47,"viability z-score without drug":-1.18}
